The text below walks through data of paper PMC11120535.

Amino acid sequences for entries named in this document (tags omitted).
UniProt P19091: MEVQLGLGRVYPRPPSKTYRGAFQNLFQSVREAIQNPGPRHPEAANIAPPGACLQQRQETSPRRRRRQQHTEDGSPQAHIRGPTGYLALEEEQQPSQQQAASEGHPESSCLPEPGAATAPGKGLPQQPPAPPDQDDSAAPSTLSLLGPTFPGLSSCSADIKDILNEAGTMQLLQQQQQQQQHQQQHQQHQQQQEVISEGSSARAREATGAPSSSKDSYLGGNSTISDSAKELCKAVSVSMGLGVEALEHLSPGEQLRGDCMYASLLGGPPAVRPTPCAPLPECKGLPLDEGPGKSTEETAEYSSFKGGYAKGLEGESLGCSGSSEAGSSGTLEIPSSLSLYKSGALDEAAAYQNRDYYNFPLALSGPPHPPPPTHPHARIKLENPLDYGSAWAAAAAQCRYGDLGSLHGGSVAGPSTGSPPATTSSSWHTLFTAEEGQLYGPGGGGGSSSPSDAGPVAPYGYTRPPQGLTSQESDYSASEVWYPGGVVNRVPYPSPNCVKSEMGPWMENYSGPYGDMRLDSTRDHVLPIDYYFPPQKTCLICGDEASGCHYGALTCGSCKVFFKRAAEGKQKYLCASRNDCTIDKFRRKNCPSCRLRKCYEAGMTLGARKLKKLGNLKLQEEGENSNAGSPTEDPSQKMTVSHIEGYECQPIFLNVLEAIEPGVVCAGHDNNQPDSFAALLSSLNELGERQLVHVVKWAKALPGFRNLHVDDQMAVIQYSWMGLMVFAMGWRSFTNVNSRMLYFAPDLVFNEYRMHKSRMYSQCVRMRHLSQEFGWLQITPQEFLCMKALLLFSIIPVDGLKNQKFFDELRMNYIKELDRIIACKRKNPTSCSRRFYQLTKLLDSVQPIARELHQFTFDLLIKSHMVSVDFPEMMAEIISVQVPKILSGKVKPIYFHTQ

Results are given in words; binding and its absence hold for the method and conditions named. In cells and extracts the contact can be indirect. Some binding calls cover weakened binding; strength is not graded here.

The target of this assay is T1, chromodomain Y-like protein (mouse (endogenous in mouse testes)) (UniProt Q9WTK2).
T1 sequence: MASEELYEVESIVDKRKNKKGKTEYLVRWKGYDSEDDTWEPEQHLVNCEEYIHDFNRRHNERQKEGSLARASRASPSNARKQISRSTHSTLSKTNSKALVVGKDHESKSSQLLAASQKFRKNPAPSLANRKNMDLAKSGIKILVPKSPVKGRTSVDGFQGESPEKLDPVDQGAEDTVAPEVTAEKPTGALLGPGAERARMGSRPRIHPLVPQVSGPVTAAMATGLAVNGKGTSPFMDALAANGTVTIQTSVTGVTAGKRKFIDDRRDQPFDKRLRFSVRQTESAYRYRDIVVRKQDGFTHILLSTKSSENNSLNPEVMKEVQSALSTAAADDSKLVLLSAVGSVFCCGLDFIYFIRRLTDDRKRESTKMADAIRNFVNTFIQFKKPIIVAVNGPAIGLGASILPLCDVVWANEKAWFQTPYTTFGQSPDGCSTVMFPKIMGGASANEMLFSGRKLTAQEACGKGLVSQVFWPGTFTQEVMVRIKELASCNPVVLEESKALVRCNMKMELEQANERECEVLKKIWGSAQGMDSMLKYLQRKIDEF
As to the kind of experiment: co-IP; wild-type mouse testes lysate immunoprecipitated with AR or CDYL antibodies (Catch and Release v2.0), IgG as control, 1 mg total protein, salt-free wash buffer, Western blot.

On to “androgen receptor (from UniProt P19091 1-899)”, for which the binding entry is on record as “binds”.
